Measured values taken from paper PMC12383022, “Discovery of a Novel Antimicrobial Peptide from Paenibacillus sp. Na14 with Potent Activity Against Gram-Negative Bacteria and Genomic Insights into Its Biosynthetic Pathway” (Antibiotics, 2025).
In brackets after ≈: the same amount, converted by molar mass.

Test system: S. aureus TISTR 517
Assay: microbe, parasite or virus in culture
Assay type: cell-based
Conditions: Staphylococcus aureus, TISTR517, 24 h, read-out: MIC, S. aureus TISTR 517
Experimental: A bacterial suspension was prepared by adjusting its turbidity at OD 625 nm to 0.1 and subsequently made a 20-fold dilution using Cation-Adjusted Mueller–Hinton broth (CAHMB) as a diluent. […] The diluted cell suspension (10 µL) was added to each well, and the plates were incubated at 37 °C for 24 h. The CAMHB alone was used as a negative control, while CAMHB containing colistin or vancomycin served as a positive control.

CN[C@H](CC(C)C)C(=O)N[C@H]1C(=O)N[C@@H](CC(N)=O)C(=O)N[C@H]2C(=O)N[C@H]3C(=O)N[C@H](C(=O)N[C@H](C(=O)O)c4cc(O)cc(O)c4-c4cc3ccc4O)[C@H](O)c3ccc(c(Cl)c3)Oc3cc2cc(c3O[C@@H]2O[C@H](CO)[C@@H](O)[C@H](O)[C@H]2O[C@H]2C[C@](C)(N)[C@H](O)[C@H](C)O2)Oc2ccc(cc2Cl)[C@H]1O [Vancomycin]
MIC: 2 µg/mL (≈ 1.38 µM)
